# According to paper PMC5675994:
# Amino acid sequences for entries named in this document (tags omitted). A change or cut given only in a name is not applied to a line headed by its entry.
# UniProt Q07540: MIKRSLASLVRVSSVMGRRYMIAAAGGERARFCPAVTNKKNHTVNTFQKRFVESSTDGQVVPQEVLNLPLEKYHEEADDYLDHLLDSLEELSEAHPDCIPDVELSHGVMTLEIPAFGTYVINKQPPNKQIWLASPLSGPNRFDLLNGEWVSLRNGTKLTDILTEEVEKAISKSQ
# No constants are given. Whether binding was seen depends on the method and setting. Binding seen in cells or lysates may run through a third protein. A yes stands for co-enrichment or nearness to the bait. Other partners may have been found. For some of these results: Where a sequence is shown, tags or fusion partners need not be part of it.
# T1: Nfs1-His6 (S. cerevisiae) (UniProt P25374)
# T1 sequence: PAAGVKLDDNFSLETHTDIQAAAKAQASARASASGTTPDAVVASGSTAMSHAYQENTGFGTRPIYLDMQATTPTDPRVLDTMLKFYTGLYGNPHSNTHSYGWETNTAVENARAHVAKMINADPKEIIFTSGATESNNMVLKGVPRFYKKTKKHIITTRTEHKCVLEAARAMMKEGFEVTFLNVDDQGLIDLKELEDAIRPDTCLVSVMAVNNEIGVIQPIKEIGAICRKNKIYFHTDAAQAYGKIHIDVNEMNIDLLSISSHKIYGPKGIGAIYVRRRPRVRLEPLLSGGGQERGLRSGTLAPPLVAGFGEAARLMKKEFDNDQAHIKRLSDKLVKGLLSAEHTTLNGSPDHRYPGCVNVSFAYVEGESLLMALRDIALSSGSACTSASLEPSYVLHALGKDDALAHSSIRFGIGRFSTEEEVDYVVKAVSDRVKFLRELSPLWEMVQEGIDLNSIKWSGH
# Legend:
# [1] = target: Yfh1-His6 (S. cerevisiae) (UniProt Q07540); experiment: affinity purification with mass spectrometry; Yfh1-His6 held on Ni-NTA superflow agarose from French-press lysate (108,000xg supernatant) of isolated mitochondria of the Yfh1-His6 yeast strain; 50 mM TrisCl pH 7.5, 80 mM KCl, 10% glycerol, wash 40 mM imidazole with 0.1% Triton X-100, elution 400 mM imidazole; eluate analysed by LC-MS/MS
# [2] = target: T1, Nfs1-His6 (S. cerevisiae); experiment: affinity purification with mass spectrometry; Nfs1-His6 held on Ni-NTA superflow agarose from sonicated, cleared lysate of isolated mitochondria of the Gal-Nfs1-His6 yeast strain; 50 mM TrisCl pH 7.5, 80 mM KCl, 10% glycerol, wash 40 mM imidazole, elution 400 mM imidazole; eluate analysed by LC-MS/MS
Binder,binding [1],binding [2]
"Altered inheritance of mitochondria protein 6 (protein, UniProt Q07716 18-390) VCALFSSRGRNPSLTDWEKLKDQKISNIDNFGLTGQHLLEFFQENLPFLSFSEEKYRHKHVSLYYDVFKEYILRRASSKKCLPVDSAIAKLNKDVNPMPVHSHNDYWRKLPLFEGLAYGASSTEADVWNIDEKILAVGHNEAYLDPVELTLDKLYTGPLLEILDEVNCQDSDADRKNGVFFNSPETSLFFYIDFKSDDNELTYKLLMEQYFKSLIDSGYLTYYDMKKDEIIWRPVTVILTGNYPTSLDILDNGNDNGYFESSQRFAFLDAPLLSLEPKYSKLSVAATVSFSQLMKHCGSDHWKVSLRGRMDSNEISCAKSIIDGAHALKLKTRIWGAPTWPANLVETISRQIIHDLGSDLLNLDNLFMASSLI",binds,binds
"Pyruvate kinase 1 (protein, UniProt P00549 1-500) MSRLERLTSLNVVAGSDLRRTSIIGTIGPKTNNPETLVALRKAGLNIVRMNFSHGSYEYHKSVIDNARKSEELYPGRPLAIALDTKGPEIRTGTTTNDVDYPIPPNHEMIFTTDDKYAKACDDKIMYVDYKNITKVISAGRIIYVDDGVLSFQVLEVVDDKTLKVKALNAGKICSHKGVNLPGTDVDLPALSEKDKEDLRFGVKNGVHMVFASFIRTANDVLTIREVLGEQGKDVKIIVKIENQQGVNNFDEILKVTDGVMVARGDLGIEIPAPEVLAVQKKLIAKSNLAGKPVICATQMLESMTYNPRPTRAEVSDVGNAILDGADCVMLSGETAKGNYPINAVTTMAETAVIAEQAIAYLPNYDDMRNCTPKPTSTTETVAASAVAAVFEQKAKAIIVLSTSGTTPRLVSKYRPNCPIILVTRCPRAARFSHLYRGVFPFVFEKEPVSDWTDDVEARINFGIEKAKEFGILKKGDTYVSIQGFKAGAGHSNTLQVSTV",binds,binds
"Cytochrome b-c1 complex subunit 1, mitochondrial (protein, UniProt P07256 27-457) AEVTQLSNGIVVATEHNPSAHTASVGVVFGSGAANENPYNNGVSNLWKNIFLSKENSAVAAKEGLALSSNISRDFQSYIVSSLPGSTDKSLDFLNQSFIQQKANLLSSSNFEATKKSVLKQVQDFEENDHPNRVLEHLHSTAFQNTPLSLPTRGTLESLENLVVADLESFANNHFLNSNAVVVGTGNIKHEDLVNSIESKNLSLQTGTKPVLKKKAAFLGSEVRLRDDTLPKAWISLAVEGEPVNSPNYFVAKLAAQIFGSYNAFEPASRLQGIKLLDNIQEYQLCDNFNHFSLSYKDSGLWGFSTATRNVTMIDDLIHFTLKQWNRLTISVTDTEVERAKSLLKLQLGQLYESGNPVNDANLLGAEVLIKGSKLSLGEAFKKIDAITVKDVKAWAGKRLWDQDIAIAGTGQIEGLLDYMRIRSDMSMMRW",binds,binds
"Enhancer of polycomb-like protein 1 (protein, UniProt P43572 1-832) MPTPSNAIEINDGSHKSGRSTRRSGSRSAHDDGLDSFSKGDSGAGASAGSSNSRFRHRKISVKQHLKIYLPNDLKHLDKDELQQREVVEIETGVEKNEEKEVHLHRILQMGSGHTKHKDYIPTPDASMTWNEYDKFYTGSFQETTSYIKFSATVEDCCGTNYNMDERDETFLNEQVNKGSSDILTEDEFEILCSSFEHAIHERQPFLSMDPESILSFEELKPTLIKSDMADFNLRNQLNHEINSHKTHFITQFDPVSQMNTRPLIQLIEKFGSKIYDYWRERKIEVNGYEIFPQLKFERPGEKEEIDPYVCFRRREVRHPRKTRRIDILNSQRLRALHQELKNAKDLALLVAKRENVSLNWINDELKIFDQRVKIKNLKRSLNISGEDDDLINHKRKRPTIVTVEQREAELRKAELKRAAAAAAAAKAKNNKRNNQLEDKSSRLTKQQQQQLLQQQQQQQQNALKTENGKQLANASSSSTSQPITSHVYVKLPSSKIPDIVLEDVDALLNSKEKNARKFVQEKMEKRKIEDADVFFNLTDDPFNPVFDMSLPKNFSTSNVPFASIASSKFQIDRSFYSSHLPEYLKGISDDIRIYDSNGRSRNKDNYNLDTKRIKKTELYDPFQENLEIHSREYPIKFRKRVGRSNIKYVDRMPNFTTSSTKSACSLMDFVDFDSIEKEQYSREGSNDTDSINVYDSKYDEFVRLYDKWKYDSPQNEYGIKFSDEPARLNQISNDTQVIRFGTMLGTKSYEQLREATIKYRRDYITRLKQKHIQHLQQQQQQQQQQQQQAQQQKQKSQNNNSNSSNSLKKLNDSLINSEAKQNSSITQKNSS",binds,binds
"Protein MMF1, mitochondrial (protein, UniProt P40185 18-145) ITTLTPVSTKLAPPAAASYSQAMKANNFVYVSGQIPYTPDNKPVQGSISEKAEQVFQNVKNILAESNSSLDNIVKVNVFLADMKNFAEFNSVYAKHFHTHKPARSCVGVASLPLNVDLEMEVIAVEKN",binds,binds
"2-isopropylmalate synthase (protein, UniProt P06208 1-619) MVKESIIALAEHAASRASRVIPPVKLAYKNMLKDPSSKYKPFNAPKLSNRKWPDNRITRAPRWLSTDLRDGNQSLPDPMSVEQKKEYFHKLVNIGFKEIEVSFPSASQTDFDFTRYAVENAPDDVSIQCLVQSREHLIKRTVEALTGAKKATIHTYLATSDMFREIVFNMSREEAISKAVEATKLVRKLTKDDPSQQATRWSYEFSPECFSDTPGEFAVEICEAVKKAWEPTEENPIIFNLPATVEVASPNVYADQIEYFATHITEREKVCISTHCHNDRGCGVAATELGMLAGADRVEGCLFGNGERTGNVDLVTVAMNMYTQGVSPNLDFSDLTSVLDVVERCNKIPVSQRAPYGGDLVVCAFSGSHQDAIKKGFNLQNKKRAQGETQWRIPYLPLDPKDIGRDYEAVIRVNSQSGKGGAAWVILRSLGLDLPRNMQIEFSSAVQDHADSLGRELKSDEISKLFKEAYNYNDEQYQAISLVNYNVEKFGTERRVFTGQVKVGDQIVDIEGTGNGPISSLVDALSNLLNVRFAVANYTEHSLGSGSSTQAASYIHLSYRRNADNEKAYKWGVGVSEDVGDSSVRAIFATINNIIHSGDVSIPSLAEVEGKNAAASGSA",binds,binds
"Homoaconitase, mitochondrial (protein, UniProt P49367 18-693) LKGQNLTEKIVQSYAVNLPEGKVVHSGDYVSIKPAHCMSHDNSWPVALKFMGLGATKIKNPSQIVTTLDHDIQNKSEKNLTKYKNIENFAKKHHIDHYPAGRGIGHQIMIEEGYAFPLNMTVASDSHSNTYGGLGSLGTPIVRTDAAAIWATGQTWWQIPPVAQVELKGQLPQGVSGKDIIVALCGLFNNDQVLNHAIEFTGDSLNALPIDHRLTIANMTTEWGALSGLFPVDKTLIDWYKNRLQKLGTNNHPRINPKTIRALEEKAKIPKADKDAHYAKKLIIDLATLTHYVSGPNSVKVSNTVQDLSQQDIKINKAYLVSCTNSRLSDLQSAADVVCPTGDLNKVNKVAPGVEFYVAAASSEIEADARKSGAWEKLLKAGCIPLPSGCGPCIGLGAGLLEPGEVGISATNRNFKGRMGSKDALAYLASPAVVAASAVLGKISSPAEVLSTSEIPFSGVKTEIIENPVVEEEVNAQTEAPKQSVEILEGFPREFSGELVLCDADNINTDGIYPGKYTYQDDVPKEKMAQVCMENYDAEFRTKVHPGDIVVSGFNFGTGSSREQAATALLAKGINLVVSGSFGNIFSRNSINNALLTLEIPALIKKLREKYQGAPKELTRRTGWFLKWDVADAKVVVTEGSLDGPVILEQKVGELGKNLQEIIVKGGLEGWVKSQL",binds,binds
"Clustered mitochondria protein 1 (protein, UniProt Q03690 1-1277) MSEKKEEVKNATVKVTVKLPKEDNHSHNTKHLKKTQSSKNNDISFEIGKESKIQTVLDVLAMIPSSKYLTNVGLKTIEGDSQLSDEMSIKEIVGEKSELKLQLILKPYSAREALKHVITVRDFIGFAQETSDGLSEFAISTGSSFSSLPLGPIKERSKQEEKDEKSDPEEKKNTFKDVTDEEKLKFNEMVHEVFSSFKNSSINKLLTSESNIITPCVRSLSFAPYNPVPPFYRSKGHLFYLQIVTLEGESFYITAIPSGFYVNKSNSTKFDPSPKENTDENAHSSLIYYSLFDLIASRSKKFISHVQAFEKKLSALDSTSYVRPSNTFLHKPWFVSSLPPNNPDYLRLQTAALDTTPERNFNDEFQAIKDLTTSTLQDRIEMERLFSKVVHEFSVTAASGAMSIFYSDFVAMNPESPTRDQIFLKDNIFYSYVSDVSGNYEGKGGDEAAIAASNQDLKTINILNRLHMHEVRYLLTTVVEFAGRRILAQTPVPGLLATMGNKIVKDANTGEEVTEDFVNDINVKYGLDEGLGKIVYDADFDSVLEKKFVKAFHLKKHKVNGTELAFSSQSKGIVGFDKRRYILDLANTYPLDINFARQNFDNIEETGNRYPHRQTLLRPELVEKWWNNKVEKEGVEFEKAYEENLFSYNPDAYQVEGIEDANVDEMSNYLQKEVIPSVIQDYLSGNLSTPYNGEHLADTLHKNGINMRYLGKIIELSQKELDSQIVHYEQNLKAVEQDNKEYEDWEKSYLQKIENMIKERQAKINKLVQEGKEVPKELTEDLKLNDEEIKKPTDGKPVVVAYDELVPLIKISELEIVSRSLKHVLKDLSKDVPVFLVPSLVAYVFNMLVGINYNADPKPEPVDEFYPVNKCSFAKLTRSELLEAVSKQAFLRFRHQLPSNWIEAYMENPFTLIRSVSYKFGIQLLNKEYFFTREQLESYKQSLDKKIRNKFVEPPTTFSLSDLTIIPRVKFSEYTSSVSEEFWAQGASMINEDKQSALTLLAQSITVLEDVNNILHPAVAEKYLSLSAIYNKLALYPEAIAFCRKACTIYERVSGIDSFEMMRALTNLAILEFSNESPYNATVVYNRLAEILKVYELPKIHHPAPTSIFNHLEQLALGVQDTKLAIEVLGQLSSYVVELEGKDSLAYGYTESRLGNLFAALKDFHRALEHITVTQGIFTKQLGMNHTHSAQSRQWVNGLSSLIMDLKQKKQLAQDQMSTTGSNSAGHKKTNHRQKKDDVKPELANKSVDELLTFIEGDSSNSKSKNKTNNKKKHGKK",binds,binds
